Measured values as given in patent US20250283871A1, “COMPOSITIONS AND METHODS FOR MODULATING THE INTERACTION BETWEEN SS18-SSX FUSION ONCOPROTEIN AND NUCLEOSOMES” (Dana-Farber Cancer Institute, Inc., priority 2020, published 2025).

B1: IMMT (protein, UniProt Q16891 34-758, looked up)
MICOS complex subunit MIC60: STSGSSGLTTGKIAGAGLLFVGGGIGGTILYAKWDSHFRESVEKTIPYSDKLFEMVLGPAAYNVPLPKKSIQSGPLKISSVSEVMKESKQPASQLQKQKGDTPASATAPTEAAQIISAAGDTLSVPAPAVQPEESLKTDHPEIGEGKPTPALSEEASSSSIRERPPEEVAARLAQQEKQEQVKIESLAKSLEDALRQTASVTLQAIAAQNAAVQAVNAHSNILKAAMDNSEIAGEKKSAQWRTVEGALKERRKAVDEAADALLKAKEELEKMKSVIENAKKKEVAGAKPHITAAEGKLHNMIVDLDNVVKKVQAAQSEAKVVSQYHELVVQARDDFKRELDSITPEVLPGWKGMSVSDLADKLSTDDLNSLIAHAHRRIDQLNRELAEQKATEKQHITLALEKQKLEEKRAFDSAVAKALEHHRSEIQAEQDRKIEEVRDAMENEMRTQLRRQAAAHTDHLRDVLRVQEQELKSEFEQNLSEKLSEQELQFRRLSQEQVDNFTLDINTAYARLRGIEQAVQSHAVAEEEARKAHQLWLSVEALKYSMKTSSAETPTIPLGSAVEAIKANCSDNEFTQALTAAIPPESLTRGVYSEETLRARFYAVQKLARRVAMIDETRNSLYQYFLSYLQSLLLFPPQQLKPPPELCPEDINTFKLLSYASYCIEHGDLELAAKFVNQLKGESRRVAQDWLKEARMTLETKQIVEILTAYASAVGIGTTQVQPE
B2: RCL1 (protein, UniProt Q9Y2P8 1-373, looked up)
RNA 3'-terminal phosphate …: MATQAHSLSYAGCNFLRQRLVLSTLSGRPVKIRKIRARDDNPGLRDFEASFIRLLDKITNGSRIEINQTGTTLYYQPGLLYGGSVEHDCSVLRGIGYYLESLLCLAPFMKHPLKIVLRGVTNDQVDPSVDVLKATALPLLKQFGIDGESFELKIVRRGMPPGGGGEVVFSCPVRKVLKPIQLTDPGKIKRIRGMAYSVRVSPQMANRIVDSARSILNKFIPDIYIYTDHMKGVNSGKSPGFGLSLVAETTSGTFLSAELASNPQGQGAAVLPEDLGRNCARLLLEEIYRGGCVDSTNQSLALLLMTLGQQDVSKVLLGPLSPYTIEFLRHLKSFFQIMFKIETKPCGEELKGGDKVLMTCVGIGFSNLSKTLK
B3: CBX8 (protein, UniProt Q9HC52 1-389, looked up)
Chromobox protein homolog 8: MELSAVGERVFAAEALLKRRIRKGRMEYLVKWKGWSQKYSTWEPEENILDARLLAAFEEREREMELYGPKKRGPKPKTFLLKAQAKAKAKTYEFRSDSARGIRIPYPGRSPQDLASTSRAREGLRNMGLSPPASSTSTSSTCRAEAPRDRDRDRDRDRERDRERERERERERERERERERGTSRVDDKPSSPGDSSKKRGPKPRKELPDPSQRPLGEPSAGLGEYLKGRKLDDTPSGAGKFPAGHSVIQLARRQDSDLVQCGVTSPSSAEATGKLAVDTFPARVIKHRAAFLEAKGQGALDPNGTRVRHGSGPPSSGGGLYRDMGAQGGRPSLIARIPVARILGDPEEESWSPSLTNLEKVVVTDVTSNFLTVTIKESNTDQGFFKEKR
B4: LMNB2 (protein, UniProt Q03252 1-617, looked up)
Lamin-B2: MSPPSPGRRREQRRPRAAATMATPLPGRAGGPATPLSPTRLSRLQEKEELRELNDRLAHYIDRVRALELENDRLLLKISEKEEVTTREVSGIKALYESELADARRVLDETARERARLQIEIGKLRAELDEVNKSAKKREGELTVAQGRVKDLESLFHRSEVELAAALSDKRGLESDVAELRAQLAKAEDGHAVAKKQLEKETLMRVDLENRCQSLQEELDFRKSVFEEEVRETRRRHERRLVEVDSSRQQEYDFKMAQALEELRSQHDEQVRLYKLELEQTYQAKLDSAKLSSDQNDKAASAAREELKEARMRLESLSYQLSGLQKQASAAEDRIRELEEAMAGERDKFRKMLDAKEQEMTEMRDVMQQQLAEYQELLDVKLALDMEINAYRKLLEGEEERLKLSPSPSSRVTVSRATSSSSGSLSATGRLGRSKRKRLEVEEPLGSGPSVLGTGTGGSGGFHLAQQASASGSVSIEEIDLEGKFVQLKNNSDKDQSLGNWRIKRQVLEGEEIAYKFTPKYILRAGQMVTVWAAGAGVAHSPPSTLVWKGQSSWGTGESFRTVLVNADGEEVAMRTVKKSSVMRENENGEEEEEEAEFGEEDLFHQQGDPRTTSRGC
B5: TUBA1C (protein, UniProt Q9BQE3 1-449, looked up)
Tubulin alpha-1C chain: MRECISIHVGQAGVQIGNACWELYCLEHGIQPDGQMPSDKTIGGGDDSFNTFFSETGAGKHVPRAVFVDLEPTVIDEVRTGTYRQLFHPEQLITGKEDAANNYARGHYTIGKEIIDLVLDRIRKLADQCTGLQGFLVFHSFGGGTGSGFTSLLMERLSVDYGKKSKLEFSIYPAPQVSTAVVEPYNSILTTHTTLEHSDCAFMVDNEAIYDICRRNLDIERPTYTNLNRLISQIVSSITASLRFDGALNVDLTEFQTNLVPYPRIHFPLATYAPVISAEKAYHEQLTVAEITNACFEPANQMVKCDPRHGKYMACCLLYRGDVVPKDVNAAIATIKTKRTIQFVDWCPTGFKVGINYQPPTVVPGGDLAKVQRAVCMLSNTTAVAEAWARLDHKFDLMYAKRAFVHWYVGEGMEEGEFSEAREDMAALEKDYEEVGADSADGEDEGEEY
B6: GATAD2B (protein, UniProt Q8WXI9 1-593, looked up)
Transcriptional repressor …: MDRMTEDALRLNLLKRSLDPADERDDVLAKRLKMEGHEAMERLKMLALLKRKDLANLEVPHELPTKQDGSGVKGYEEKLNGNLRPHGDNRTAGRPGKENINDEPVDMSARRSEPERGRLTPSPDIIVLSDNEASSPRSSSRMEERLKAANLEMFKGKGIEERQQLIKQLRDELRLEEARLVLLKKLRQSQLQKENVVQKTPVVQNAASIVQPSPAHVGQQGLSKLPSRPGAQGVEPQNLRTLQGHSVIRSATNTTLPHMLMSQRVIAPNPAQLQGQRGPPKPGLVRTTTPNMNPAINYQPQSSSSVPCQRTTSSAIYMNLASHIQPGTVNRVSSPLPSPSAMTDAANSQAAAKLALRKQLEKTLLEIPPPKPPAPLLHFLPSAANSEFIYMVGLEEVVQSVIDSQGKSCASLLRVEPFVCAQCRTDFTPHWKQEKNGKILCEQCMTSNQKKALKAEHTNRLKNAFVKALQQEQEIEQRLQQQAALSPTTAPAVSSVSKQETIMRHHTLRQAPQPQSSLQRGIPTSARSMLSNFAQAPQLSVPGGLLGMPGVNIAYLNTGIGGHKGPSLADRQREYLLDMIPPRSISQSISGQK
B7: SNW1 (protein, UniProt Q13573 2-536, looked up)
SNW domain-containing protein …: ALTSFLPAPTQLSQDQLEAEEKARSQRSRQTSLVSSRREPPPYGYRKGWIPRLLEDFGDGGAFPEIHVAQYPLDMGRKKKMSNALAIQVDSEGKIKYDAIARQGQSKDKVIYSKYTDLVPKEVMNADDPDLQRPDEEAIKEITEKTRVALEKSVSQKVAAAMPVRAADKLAPAQYIRYTPSQQGVAFNSGAKQRVIRMVEMQKDPMEPPRFKINKKIPRGPPSPPAPVMHSPSRKMTVKEQQEWKIPPCISNWKNAKGYTIPLDKRLAADGRGLQTVHINENFAKLAEALYIADRKAREAVEMRAQVERKMAQKEKEKHEEKLREMAQKARERRAGIKTHVEKEDGEARERDEIRHDRRKERQHDRNLSRAAPDKRSKLQRNENRDISEVIALGVPNPRTSNEVQYDQRLFNQSKGMDSGFAGGEDEIYNVYDQAWRGGKDMAQSIYRPSKNLDKDMYGDDLEARIKTNRFVPDKEFSGSDRRQRGREGPVQFEEDPFGLDKFLEEAKQHGGSKRPSDSSRPKEHEHEGKKRRKE
B8: CENPB (protein, UniProt P07199 2-599, looked up)
Major centromere autoantigen B: GPKRRQLTFREKSRIIQEVEENPDLRKGEIARRFNIPPSTLSTILKNKRAILASERKYGVASTCRKTNKLSPYDKLEGLLIAWFQQIRAAGLPVKGIILKEKALRIAEELGMDDFTASNGWLDRFRRRHGVVSCSGVARARARNAAPRTPAAPASPAAVPSEGSGGSTTGWRAREEQPPSVAEGYASQDVFSATETSLWYDFLPDQAAGLCGGDGRPRQATQRLSVLLCANADGSEKLPPLVAGKSAKPRAGQAGLPCDYTANSKGGVTTQALAKYLKALDTRMAAESRRVLLLAGRLAAQSLDTSGLRHVQLAFFPPGTVHPLERGVVQQVKGHYRQAMLLKAMAALEGQDPSGLQLGLTEALHFVAAAWQAVEPSDIAACFREAGFGGGPNATITTSLKSEGEEEEEEEEEEEEEEGEGEEEEEEGEEEEEEGGEGEELGEEEEVEEEGDVDSDEEEEEDEESSSEGLEAEDWAQGVVEAGGSFGAYGAQEEAQCPTLHFLEGGEDSDSDSEEEDDEEEDDEDEDDDDDEEDGDEVPVPSFGEAMAYFAMVKRYLTSFPIDDRVQSHILHLEHDLVHVTRKNHARQAGVRGLGHQS
B9: HNRNPCL2 (protein, UniProt B2RXH8 1-293, looked up)
Heterogeneous nuclear …: MASNVTNKMDPHSVNSRVFIGNLNTLVVKKSDVEAIFSKYGKIAGCSVHKGFAFVQYDKEKNARAAVAGEDGRMIASQVAVINLAAEPKVNRGNAGVKRSAAEMYGSSFDLDYGFQRDYYDGMYSFPARVPPPPPIALAVVPSKRQRISGNTSRRGKSGFNSKSGKRGSSKSGKLKGDDLQAIKQELTQIKQKVDSLLENLEKIEKEQSKQEVEVKNAKSEEEQSSSSMKKDETHVKMESEGGAEDSAEEGDPLDDDDNEDQGDNQLHLIKNNEKDAEEGEDNRDSTNGQDDS

tested on: BAF complex subunits and histone proteins; assay: Mass spectrometry proteomics of purified HA-SS18 WT and HA-SS18-SSX1 complexes (Tables 5A-5E); set-up: species or system human; details: HA-SS18SSX1_CHR_peptides: protein identified in the HA-SS18-SSX1 purification from solubilized chromatin (CHR), HEK-293T

Molecule | Total (total peptides) | Unique (unique peptides)
B1 | 6 | 6
B2 | 6 | 6
B3 | 6 | 6
B4 | 6 | 6
B5 | 6 | 6
B6 | 6 | 6
B7 | 6 | 6
B8 | 6 | 6
B9 | 6 | 6

same assay, conditions: HA-SS18SSX1_NE_peptides: protein co-purified with HA-SS18-SSX1 BAF complexes from soluble nuclear extract (NE), HEK-293T cells

Molecule | Total (peptides) | Unique (peptides)
B4 | 2 | 2

same assay, conditions: HA-SS18SSX1 purification, NE (soluble nuclear extract) fraction, HEK-293T; peptides per identified protein

Molecule | Total (total peptides) | Unique (unique peptides)
B5 | 11 | 9

same assay, conditions: HA-SS18WT_CHR_peptides: HA-SS18 WT purification from nuclease-treated solubilized chromatin (CHR), HEK-293T; label = protein identified

Molecule | Total (peptides) | Unique (peptides)
B1 | 4 | 4
B2 | 4 | 4
B3 | 3 | 3
B5 | 3 | 3
B6 | 4 | 4
B8 | 5 | 5
B9 | 8 | 6

same assay, conditions: HA-SS18WT_CHR_peptides: protein identified in HA-SS18 WT BAF complex purification from nuclease-treated solubilized chromatin (CHR), HEK-293T

Molecule | Total (total peptides) | Unique (unique peptides)
B4 | 2 | 2

same assay, conditions: HA-SS18WT_NE_peptides: HA-SS18 WT complexes purified from nuclear extract (NE), HEK-293T; label = protein identified (Gene Symbol)

Molecule | Total (peptides) | Unique (peptides)
B1 | 15 | 13
B5 | 14 | 13

same assay, conditions: HA-SS18WT_NE_peptides: proteins co-purified with HA-SS18 WT from nuclear extract (NE), HEK-293T

Molecule | Total (peptides) | Unique (peptides)
B1 | 1 | 1
